Measurements taken from the supplement of paper PMC10849652.
The other results are listed elsewhere or left out.

By UniProt entry, the sequences of proteins in these tests, tags left out. Where a name states a change or a piece, a line headed by the entry shows the natural chain unless it says otherwise.
UniProt Q9UHB7: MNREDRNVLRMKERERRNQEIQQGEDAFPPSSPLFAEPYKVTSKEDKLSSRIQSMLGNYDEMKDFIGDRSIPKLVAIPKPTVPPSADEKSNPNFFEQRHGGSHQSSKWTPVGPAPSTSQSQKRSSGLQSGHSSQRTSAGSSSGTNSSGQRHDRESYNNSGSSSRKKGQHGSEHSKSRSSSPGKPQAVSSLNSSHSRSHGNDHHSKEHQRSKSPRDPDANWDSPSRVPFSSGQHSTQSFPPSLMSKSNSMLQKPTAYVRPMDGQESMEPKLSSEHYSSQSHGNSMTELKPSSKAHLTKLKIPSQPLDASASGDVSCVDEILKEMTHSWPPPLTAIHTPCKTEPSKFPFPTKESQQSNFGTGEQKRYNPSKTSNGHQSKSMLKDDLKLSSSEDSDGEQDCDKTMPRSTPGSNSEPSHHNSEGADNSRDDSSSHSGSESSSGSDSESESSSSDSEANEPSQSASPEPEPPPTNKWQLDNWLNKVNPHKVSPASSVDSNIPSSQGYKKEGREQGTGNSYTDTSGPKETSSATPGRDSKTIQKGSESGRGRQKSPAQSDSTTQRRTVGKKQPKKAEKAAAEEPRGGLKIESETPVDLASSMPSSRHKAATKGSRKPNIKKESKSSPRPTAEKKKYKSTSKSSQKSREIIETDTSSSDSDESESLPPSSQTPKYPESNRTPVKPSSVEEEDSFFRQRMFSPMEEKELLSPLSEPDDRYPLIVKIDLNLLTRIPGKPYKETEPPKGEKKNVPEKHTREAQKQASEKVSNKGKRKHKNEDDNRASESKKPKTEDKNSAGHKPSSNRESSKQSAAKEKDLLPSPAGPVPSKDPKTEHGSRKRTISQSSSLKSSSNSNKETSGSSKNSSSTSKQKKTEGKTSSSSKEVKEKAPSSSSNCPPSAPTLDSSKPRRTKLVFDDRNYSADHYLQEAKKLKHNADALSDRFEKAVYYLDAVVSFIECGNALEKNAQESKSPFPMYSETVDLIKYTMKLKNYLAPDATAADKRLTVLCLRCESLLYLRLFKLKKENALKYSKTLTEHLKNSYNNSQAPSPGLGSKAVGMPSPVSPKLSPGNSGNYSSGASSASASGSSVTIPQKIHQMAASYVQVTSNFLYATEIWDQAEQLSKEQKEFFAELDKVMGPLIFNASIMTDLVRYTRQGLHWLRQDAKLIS
UniProt P42330: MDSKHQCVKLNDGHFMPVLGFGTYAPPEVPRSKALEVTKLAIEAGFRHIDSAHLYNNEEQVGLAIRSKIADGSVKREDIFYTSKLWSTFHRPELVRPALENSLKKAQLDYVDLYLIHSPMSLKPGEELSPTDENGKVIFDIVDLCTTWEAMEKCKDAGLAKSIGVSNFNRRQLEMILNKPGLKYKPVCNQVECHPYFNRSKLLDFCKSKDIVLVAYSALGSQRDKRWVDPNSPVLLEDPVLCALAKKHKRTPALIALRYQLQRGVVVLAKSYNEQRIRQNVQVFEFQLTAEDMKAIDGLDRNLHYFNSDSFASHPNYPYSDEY
UniProt Q9NR19, whole entry, looked up: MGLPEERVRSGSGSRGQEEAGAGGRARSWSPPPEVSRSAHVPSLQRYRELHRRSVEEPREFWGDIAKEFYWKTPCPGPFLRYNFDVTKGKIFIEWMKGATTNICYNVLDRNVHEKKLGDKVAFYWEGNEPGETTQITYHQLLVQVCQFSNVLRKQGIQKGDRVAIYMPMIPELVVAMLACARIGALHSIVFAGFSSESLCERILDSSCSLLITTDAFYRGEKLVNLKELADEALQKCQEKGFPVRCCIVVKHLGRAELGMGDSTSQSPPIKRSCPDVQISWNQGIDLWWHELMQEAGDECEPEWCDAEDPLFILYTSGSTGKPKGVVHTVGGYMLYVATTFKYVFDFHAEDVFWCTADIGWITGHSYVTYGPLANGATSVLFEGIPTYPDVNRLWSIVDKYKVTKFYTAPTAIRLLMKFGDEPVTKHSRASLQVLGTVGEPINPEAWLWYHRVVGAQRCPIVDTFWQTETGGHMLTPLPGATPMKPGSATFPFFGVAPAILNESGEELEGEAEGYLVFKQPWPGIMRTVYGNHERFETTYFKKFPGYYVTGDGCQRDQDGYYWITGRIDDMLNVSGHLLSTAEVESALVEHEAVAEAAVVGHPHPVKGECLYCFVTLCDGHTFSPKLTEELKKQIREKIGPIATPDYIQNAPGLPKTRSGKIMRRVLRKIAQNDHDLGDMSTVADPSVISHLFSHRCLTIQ
UniProt Q9BV57: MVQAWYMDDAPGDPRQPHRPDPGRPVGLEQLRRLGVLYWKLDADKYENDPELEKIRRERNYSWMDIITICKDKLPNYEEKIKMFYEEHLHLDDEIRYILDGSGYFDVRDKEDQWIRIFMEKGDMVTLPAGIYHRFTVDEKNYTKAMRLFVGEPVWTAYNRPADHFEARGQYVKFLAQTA
UniProt Q9NRZ7: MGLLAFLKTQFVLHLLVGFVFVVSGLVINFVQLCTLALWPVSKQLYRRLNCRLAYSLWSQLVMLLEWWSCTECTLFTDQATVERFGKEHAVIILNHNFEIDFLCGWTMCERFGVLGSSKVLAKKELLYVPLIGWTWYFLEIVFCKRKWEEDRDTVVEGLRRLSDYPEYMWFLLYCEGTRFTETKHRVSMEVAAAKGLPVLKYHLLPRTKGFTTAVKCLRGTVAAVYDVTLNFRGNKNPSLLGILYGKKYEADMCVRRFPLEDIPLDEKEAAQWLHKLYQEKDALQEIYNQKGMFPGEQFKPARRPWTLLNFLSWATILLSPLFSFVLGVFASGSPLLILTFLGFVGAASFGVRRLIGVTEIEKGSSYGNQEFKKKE
UniProt Q9UKU0: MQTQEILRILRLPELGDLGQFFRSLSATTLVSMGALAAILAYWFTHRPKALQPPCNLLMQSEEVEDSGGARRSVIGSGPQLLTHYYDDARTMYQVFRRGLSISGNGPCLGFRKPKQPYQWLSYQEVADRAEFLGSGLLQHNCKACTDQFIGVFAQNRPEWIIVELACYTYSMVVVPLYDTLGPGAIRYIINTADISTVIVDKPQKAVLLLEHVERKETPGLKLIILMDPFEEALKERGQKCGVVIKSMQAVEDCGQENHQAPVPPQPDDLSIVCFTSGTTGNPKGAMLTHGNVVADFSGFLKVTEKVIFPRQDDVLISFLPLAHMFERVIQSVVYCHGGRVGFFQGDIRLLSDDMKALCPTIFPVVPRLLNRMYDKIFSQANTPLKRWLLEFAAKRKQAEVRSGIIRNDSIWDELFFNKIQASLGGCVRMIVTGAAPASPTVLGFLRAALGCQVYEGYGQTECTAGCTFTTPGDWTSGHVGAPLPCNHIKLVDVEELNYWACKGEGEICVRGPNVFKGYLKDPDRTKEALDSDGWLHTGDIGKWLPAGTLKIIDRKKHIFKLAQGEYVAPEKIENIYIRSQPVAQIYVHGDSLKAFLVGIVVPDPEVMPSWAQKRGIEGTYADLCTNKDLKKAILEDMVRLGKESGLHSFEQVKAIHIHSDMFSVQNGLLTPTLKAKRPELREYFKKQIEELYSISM
UniProt Q02040: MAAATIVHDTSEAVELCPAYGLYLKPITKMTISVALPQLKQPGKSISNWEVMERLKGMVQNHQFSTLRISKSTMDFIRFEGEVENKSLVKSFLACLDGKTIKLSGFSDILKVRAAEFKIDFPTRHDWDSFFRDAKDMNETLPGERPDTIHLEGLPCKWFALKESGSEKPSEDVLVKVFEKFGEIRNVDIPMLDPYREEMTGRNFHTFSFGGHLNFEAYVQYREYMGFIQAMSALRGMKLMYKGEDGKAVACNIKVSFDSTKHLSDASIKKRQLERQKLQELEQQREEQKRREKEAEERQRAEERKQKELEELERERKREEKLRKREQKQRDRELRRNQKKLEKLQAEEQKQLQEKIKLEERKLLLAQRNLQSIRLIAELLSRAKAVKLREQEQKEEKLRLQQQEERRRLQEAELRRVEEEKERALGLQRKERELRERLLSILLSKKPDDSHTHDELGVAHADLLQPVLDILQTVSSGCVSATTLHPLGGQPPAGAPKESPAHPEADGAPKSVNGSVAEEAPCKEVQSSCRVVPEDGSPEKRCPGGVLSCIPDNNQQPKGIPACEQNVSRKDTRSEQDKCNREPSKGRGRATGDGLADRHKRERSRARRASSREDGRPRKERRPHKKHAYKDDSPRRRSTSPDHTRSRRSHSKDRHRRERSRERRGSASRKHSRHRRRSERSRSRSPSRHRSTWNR
UniProt Q8N157: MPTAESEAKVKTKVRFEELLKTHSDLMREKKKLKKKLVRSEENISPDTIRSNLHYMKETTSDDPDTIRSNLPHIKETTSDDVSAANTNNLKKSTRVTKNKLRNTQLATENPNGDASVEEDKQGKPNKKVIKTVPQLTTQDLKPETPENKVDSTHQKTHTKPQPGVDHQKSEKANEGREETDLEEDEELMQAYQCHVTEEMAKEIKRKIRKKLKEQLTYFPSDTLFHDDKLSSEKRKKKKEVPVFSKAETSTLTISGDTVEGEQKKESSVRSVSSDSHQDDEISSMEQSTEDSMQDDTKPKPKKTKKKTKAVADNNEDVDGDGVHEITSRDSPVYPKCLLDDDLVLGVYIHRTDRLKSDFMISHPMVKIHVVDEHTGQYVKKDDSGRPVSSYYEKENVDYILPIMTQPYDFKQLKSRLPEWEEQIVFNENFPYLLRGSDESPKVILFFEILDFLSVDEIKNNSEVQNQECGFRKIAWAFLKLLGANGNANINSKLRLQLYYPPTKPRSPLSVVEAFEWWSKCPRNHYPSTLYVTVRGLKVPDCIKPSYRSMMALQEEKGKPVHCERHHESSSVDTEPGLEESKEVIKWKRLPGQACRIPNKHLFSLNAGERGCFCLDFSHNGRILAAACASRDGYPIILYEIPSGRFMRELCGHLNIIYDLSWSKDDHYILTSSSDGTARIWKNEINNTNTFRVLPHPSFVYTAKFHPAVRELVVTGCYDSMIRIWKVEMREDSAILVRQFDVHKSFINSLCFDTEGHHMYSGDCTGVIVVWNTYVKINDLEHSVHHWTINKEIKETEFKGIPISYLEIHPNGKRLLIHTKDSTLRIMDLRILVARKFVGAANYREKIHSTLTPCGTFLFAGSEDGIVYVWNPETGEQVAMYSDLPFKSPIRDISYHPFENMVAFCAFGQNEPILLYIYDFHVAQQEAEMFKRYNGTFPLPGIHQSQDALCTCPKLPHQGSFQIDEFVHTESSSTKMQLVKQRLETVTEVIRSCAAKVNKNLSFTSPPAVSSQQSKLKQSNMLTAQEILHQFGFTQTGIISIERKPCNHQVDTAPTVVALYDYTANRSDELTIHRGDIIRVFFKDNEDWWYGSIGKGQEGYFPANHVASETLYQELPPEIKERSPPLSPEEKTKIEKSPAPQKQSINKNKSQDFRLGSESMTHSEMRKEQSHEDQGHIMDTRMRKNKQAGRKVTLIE
UniProt Q13444: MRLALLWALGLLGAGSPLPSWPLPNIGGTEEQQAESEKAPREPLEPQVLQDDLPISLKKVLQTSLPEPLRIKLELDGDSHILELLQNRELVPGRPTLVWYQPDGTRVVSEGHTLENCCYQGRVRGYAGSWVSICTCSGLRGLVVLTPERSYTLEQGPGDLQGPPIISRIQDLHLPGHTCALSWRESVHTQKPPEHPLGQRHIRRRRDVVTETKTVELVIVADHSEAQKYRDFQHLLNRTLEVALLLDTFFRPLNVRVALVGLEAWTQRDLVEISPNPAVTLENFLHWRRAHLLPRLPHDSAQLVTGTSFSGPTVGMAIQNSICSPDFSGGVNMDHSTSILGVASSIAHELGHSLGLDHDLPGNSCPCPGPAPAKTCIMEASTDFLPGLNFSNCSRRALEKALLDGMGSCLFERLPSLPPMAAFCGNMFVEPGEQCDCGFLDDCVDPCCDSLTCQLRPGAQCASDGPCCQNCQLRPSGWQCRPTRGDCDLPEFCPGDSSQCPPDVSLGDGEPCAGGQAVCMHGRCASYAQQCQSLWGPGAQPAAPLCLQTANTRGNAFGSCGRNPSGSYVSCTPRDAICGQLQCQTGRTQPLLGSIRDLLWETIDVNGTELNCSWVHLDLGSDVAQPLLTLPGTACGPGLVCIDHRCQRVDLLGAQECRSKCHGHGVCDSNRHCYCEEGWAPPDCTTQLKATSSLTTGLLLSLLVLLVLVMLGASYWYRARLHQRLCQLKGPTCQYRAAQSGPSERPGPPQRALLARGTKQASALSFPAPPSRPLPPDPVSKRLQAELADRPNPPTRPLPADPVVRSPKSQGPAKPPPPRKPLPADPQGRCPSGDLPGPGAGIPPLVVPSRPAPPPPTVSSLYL
UniProt Q53H80, whole entry, looked up: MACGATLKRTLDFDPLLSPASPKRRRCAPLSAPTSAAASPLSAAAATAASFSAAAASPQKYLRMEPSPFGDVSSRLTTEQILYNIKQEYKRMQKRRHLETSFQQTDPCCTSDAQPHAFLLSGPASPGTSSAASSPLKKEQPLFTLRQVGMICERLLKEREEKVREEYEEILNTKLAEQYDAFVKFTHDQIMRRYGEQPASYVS
UniProt Q9BQI0: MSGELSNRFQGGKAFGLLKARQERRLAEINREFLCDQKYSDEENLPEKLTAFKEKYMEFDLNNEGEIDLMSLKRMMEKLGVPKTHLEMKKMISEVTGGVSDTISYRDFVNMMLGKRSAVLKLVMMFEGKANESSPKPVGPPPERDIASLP

Experiments:
Test in all cases: log2 fold change, soluble protein after heating vs DMSO (PISA); higher = thermal stabilisation; K562 lysate, 10 uM; active = over 0.2 and 3.5 SD of the protein, either way, in both replicates (recomputed)
erlotinib = compound: C#Cc1cccc(Nc2ncnc3cc(OCCOC)c(OCCOC)cc23)c1 [erlotinib]
How it was run: (§1)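 A 30 min treatment with 10 μM compound was applied to crude K562 extract at 1 mg/mL protein in PBS pH 7.4 with 1 mM MgCl2. Heating for 3 min spanned 48°C-58°C, after which aliquots were pooled, adjusted to 0.5% NP-40 at 4°C and spun at 21,000xg for 90 min. TMTpro 16plex LC-MS/MS of the supernatant, with channel sums equalised, gave values recorded as log-two fold change in thermal stability against solvent controls, from duplicates.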

[1] = compound: C/C(=N\NC(=O)C1=CC(=CC=C1)S(=O)(=O)N2CCOCC2)/C3=C(C=CC(=C3)Cl)O
How it was run: as §1

[2] = compound: C1=CC(=CC=C1C2=NC3=C(N2)C=C(C=C3)C(=O)N)OC4=CC=C(C=C4)Cl
How it was run: as §1

[3] = compound: C1=CC2=C(C=CC(=C2)/C=C\3/C(=O)NC(=NCC4=CC=CS4)S3)N=C1
How it was run: as §1

[4] = compound: C1=CC2=NC=CN=C2C=C1/C=C/3\C(=O)NC(=O)S3
How it was run: as §1

[5] = compound: C1=CC=C(C=C1)C2=NC(=C(N2)C3=CC=NC=C3)C4=CC(=C(C=C4)Cl)O
How it was run: as §1

[6] = compound: C1=CC=C2C(=C1)C3=NNC4=CC=CC(=C43)C2=O
How it was run: as §1

[7] = compound: C1CCN(C1)C(=O)NC2=CC=CC(=C2)NC3=NC=C(C(=N3)NCCC4=CN=CN4)Br
How it was run: as §1

[8] = compound: C1CN(CCC1(CC2=CC=C(C=C2)Cl)N)C3=NC=NC4=C3C=CN4
How it was run: as §1

IRAK-1-4 Inhibitor I = compound: C1COCCN1CCN2C3=CC=CC=C3N=C2NC(=O)C4=CC(=CC=C4)[N+](=O)[O-] [IRAK-1-4 Inhibitor I]
How it was run: as §1

ibrutinib = compound: C=CC(=O)N1CCC[C@@H](n2nc(-c3ccc(Oc4ccccc4)cc3)c3c(N)ncnc32)C1 [ibrutinib]
How it was run: as §1

[9] = compound: CC(=O)c1cnc2ccc(-c3cc(Cl)c(O)c(Cl)c3)nc2c1N[C@H]1CC[C@H](CN(C)C)CC1
How it was run: as §1

ralimetinib = compound: CC(C)(C)Cn1c(N)nc2ccc(-c3[nH]c(C(C)(C)C)nc3-c3ccc(F)cc3)nc21 [ralimetinib]
How it was run: as §1

[10] = compound: CC(C)(O)CC(=O)NCCn1ccc2ncnc(Nc3ccc(Oc4cccc(C(F)(F)F)c4)c(Cl)c3)c21
How it was run: as §1

[11] = compound: CC(C)C1=C2N=C(C=C(N2N=C1)NCC3=CC=CC=C3)NCCCCCCN
How it was run: as §1

[12] = compound: CC1=C(C(CC(=O)N1)C2=CC=C(C=C2)C(F)(F)F)C(=O)NC3=C(C=C4C(=C3)C=NN4)F
How it was run: as §1

[13] = compound: CC1=C(C2=C(C=C1)C(=O)C3=CC=CC=C3N2CCCN)C
How it was run: as §1

[14] = compound: CC1=C(C=C(C=C1)NC(=O)C2=CC(=CC=C2)C(C)(C)C#N)NC3=CC4=C(C=C3)N=CN(C4=O)C
How it was run: as §1

[15] = compound: CC1=C(C=C(C=C1)NC(=O)C2=CC(=CC=C2)N(C)C)NC(=O)C3=CC=C(C=C3)O
How it was run: as §1

[16] = compound: CC1=CC=C(C=C1)SC2=C3C=C(SC3=CN=C2)C(=O)N
How it was run: as §1

Row | Target | log2 fold change (erlotinib) | log2 fold change [1] | log2 fold change [2] | log2 fold change [3] | log2 fold change [4] | log2 fold change [5] | log2 fold change [6] | log2 fold change [7] | log2 fold change [8] | log2 fold change (IRAK-1-4 Inhibitor I) | log2 fold change (ibrutinib) | log2 fold change [9] | log2 fold change (ralimetinib) | log2 fold change [10] | log2 fold change [11] | log2 fold change [12] | log2 fold change [13] | log2 fold change [14] | log2 fold change [15] | log2 fold change [16]
1 | AFF4 (UniProt Q9UHB7) | inactive: -0.003 | inactive: -0.152 | inactive: 0.007 | inactive: -0.063 | inactive: 0.021 | inactive: 0.048 | inactive: 0.003 | inactive: 0.032 | inactive: 0.016 | inactive: -0.031 | inactive: 0.172 | inactive: -0.009 | inactive: -0.049 | inactive: 0.033 | inactive: -0.008 | inactive: -0.028 | inactive: -0.047 | inactive: 0.009 | inactive: 0.002 | inactive: 0.024
2 | AKR1C3 (UniProt P42330) | inactive: 0.002 | inactive: 0.023 | inactive: -0.1 | inactive: 0.029 | inactive: 0.008 | active: 0.3 | inactive: 0.024 | inactive: 0.05 | inactive: 0.029 | inactive: -0.017 | inactive: -0.033 | inactive: 0.016 | inactive: -0.028 | inactive: -0.003 | inactive: -0.039 | inactive: 0.011 | active: 0.247 | inactive: 0.02 | inactive: -0.035 | inactive: 0.001
3 | ACSS2 isoform 2 (UniProt Q9NR19) | inactive: 0.008 | inactive: 0.025 | inactive: -0.014 | inactive: -0.006 | inactive: 0.009 | inactive: -0.021 | inactive: -0.002 | inactive: 0.07 | inactive: -0.003 | inactive: -0.026 | inactive: -0.026 | inactive: -0.003 | inactive: 0.01 | inactive: 0.029 | inactive: -0.014 | inactive: 0.02 | inactive: 0.034 | inactive: -0.041 | inactive: 0.029 | inactive: 0.002
4 | ADI1 (UniProt Q9BV57) | inactive: 0.02 | inactive: -0.085 | inactive: -0.02 | inactive: 0.053 | inactive: -0.007 | inactive: -0.001 | inactive: -0.011 | inactive: 0.022 | inactive: 0.001 | inactive: 0.056 | inactive: -0.026 | inactive: 0.002 | inactive: 0.027 | inactive: -0.006 | inactive: 0.001 | inactive: 0.011 | inactive: 0.001 | inactive: 0.023 | inactive: 0.003 | inactive: -0.005
5 | AGPAT3 isoform 3 (UniProt Q9NRZ7) | inactive: 0.056 | inactive: 0.046 | inactive: -0.084 | inactive: 0.05 | inactive: 0.023 | inactive: -0.004 | inactive: -0.077 | inactive: -0.036 | inactive: 0.013 | inactive: -0.025 | inactive: -0.028 | inactive: -0.021 | inactive: 0.045 | inactive: -0.04 | inactive: -0.047 | inactive: 0.069 | inactive: -0.011 | inactive: 0.013 | inactive: 0.011 | inactive: -0.021
6 | AGO4 (UniProt Q9HCK5) | inactive: -0.038 | inactive: -0.008 | inactive: 0.031 | inactive: -0.02 | inactive: -0.031 | inactive: 0.009 | inactive: -0.015 | inactive: 0.009 | inactive: 0.016 | inactive: -0.009 | inactive: 0.034 | inactive: -0.035 | inactive: 0.022 | inactive: -0.011 | inactive: -0.049 | inactive: 0.025 | inactive: 0.05 | inactive: 0 | inactive: -0.013 | inactive: -0.024
7 | ACTN4 (UniProt O43707) | inactive: 0.005 | inactive: 0.035 | inactive: 0.019 | inactive: -0.006 | inactive: -0.012 | inactive: 0.007 | inactive: 0.006 | inactive: 0.028 | inactive: -0.004 | inactive: 0.02 | inactive: 0.017 | inactive: -0.006 | inactive: 0.002 | inactive: -0.018 | inactive: 0.008 | inactive: -0.011 | inactive: 0.002 | inactive: 0.007 | inactive: -0.007 | inactive: -0.013
8 | ACSL6 isoform 1 (UniProt Q9UKU0) | inactive: -0.032 |  | inactive: -0.312 |  | inactive: 0.025 | inactive: 0.007 |  |  |  | inactive: -0.031 | inactive: 0.035 | inactive: 0.056 | inactive: 0.098 | inactive: -0.028 | inactive: -0.01 |  |  |  | inactive: 0.085 | inactive: 0.068
9 | AGGF1 (UniProt Q8N302) | inactive: -0.015 | inactive: -0.056 | inactive: 0.054 | inactive: -0.19 | inactive: -0.077 | inactive: 0.018 | inactive: 0.057 | inactive: -0.038 | inactive: -0.022 | inactive: 0.023 | inactive: 0.034 | inactive: 0.077 | inactive: -0.014 | inactive: -0.023 | inactive: -0.017 | inactive: -0.011 |  | inactive: 0.034 | inactive: -0.04 | inactive: -0.341
10 | ADD2 isoform 9 (UniProt P35612) | inactive: -0.111 | inactive: -0.031 | inactive: -0.033 | inactive: -0.17 |  | inactive: 0.075 | inactive: 0.041 | inactive: -0.064 | inactive: 0.006 | inactive: 0.076 |  | inactive: 0.038 | inactive: 0.025 | inactive: -0.244 | inactive: -0.013 | inactive: 0.098 | inactive: -0.001 |  | inactive: -0.054 | inactive: 0.253
11 | AKAP17A (UniProt Q02040) | inactive: 0.034 |  | inactive: 0.016 |  |  | inactive: -0.061 |  |  |  | inactive: -0.056 |  | inactive: -0.108 | inactive: 0.025 | inactive: -0.084 | inactive: 0.098 |  | inactive: 0.196 | inactive: -0.114 | inactive: -0.02 | inactive: 0.25
12 | ACSL5 isoform 3 (UniProt Q9ULC5) | inactive: 0.043 |  | inactive: -0.172 |  | inactive: -0.085 | inactive: 0.03 |  |  |  | inactive: 0.056 | inactive: -0.013 | inactive: -0.014 | inactive: 0 | inactive: -0.078 | inactive: 0.032 | inactive: 0.039 | inactive: 0.043 | inactive: -0.05 | inactive: 0.036 | inactive: 0.005
13 | AHI1 (UniProt Q8N157) | inactive: -0.098 | inactive: 0.068 | inactive: -0.264 | inactive: 0.031 |  |  | inactive: -0.312 | inactive: -0.036 | inactive: 0 |  |  |  |  |  | inactive: 0.024 |  |  |  |  | 
14 | ADAM15 (UniProt Q13444) | inactive: 0.048 |  | inactive: -0.062 |  | inactive: 0.012 | inactive: -0.011 |  |  |  | inactive: -0.006 | inactive: 0.013 | inactive: -0.158 | inactive: 0.006 | inactive: -0.142 | inactive: -0.168 |  | inactive: 0.079 | inactive: -0.11 | inactive: -0.043 | inactive: -0.161
15 | AKIRIN2 (UniProt Q53H80) | inactive: -0.035 | inactive: 0.032 | inactive: -0.11 | inactive: -0.043 |  | inactive: 0.063 | inactive: -0.01 | inactive: 0.142 | inactive: 0.005 | inactive: 0.116 |  | inactive: -0.155 | inactive: 0.025 | inactive: 0.112 | inactive: -0.151 | inactive: -0.105 | inactive: -0.057 | inactive: -0.074 | inactive: 0.026 | inactive: 0.096
16 | ADD1 isoform 4 (UniProt P35611) | inactive: -0.016 | inactive: -0.059 | inactive: 0.011 | inactive: 0.089 | inactive: -0.088 | inactive: -0.081 | inactive: -0.025 | inactive: 0.028 | inactive: -0.009 | inactive: 0.093 | inactive: 0.214 | inactive: 0.003 | inactive: -0.104 | inactive: -0.356 | inactive: 0.056 |  | inactive: 0.004 |  | inactive: 0.017 | inactive: -0.341
17 | AIF1L (UniProt Q9BQI0) | inactive: -0.035 |  | inactive: -0.008 |  | inactive: -0.014 | inactive: 0.012 |  | inactive: 0.329 | inactive: -0.008 | inactive: -0.049 | inactive: 0.169 | inactive: 0.032 | inactive: 0.029 | inactive: -0.003 | inactive: -0.105 | inactive: -0.012 | inactive: 0.159 | inactive: -0.014 | inactive: -0.005 | inactive: -0.013
18 | ACTR5 (UniProt Q9H9F9) | inactive: -0.055 | inactive: 0.055 | inactive: -0.053 | inactive: -0.043 | inactive: 0.047 | inactive: -0.089 | inactive: 0.068 | inactive: -0.194 | inactive: 0.031 | inactive: -0.009 | inactive: 0.134 |  | inactive: 0.009 | inactive: -0.035 | inactive: -0.053 | inactive: -0.071 | inactive: -0.069 | inactive: -0.062 | inactive: -0.057 | 

Another view of part of the listing above:
Row	Target	log2 fold change (erlotinib)	log2 fold change [1]	log2 fold change [2]	log2 fold change [3]	log2 fold change [4]	log2 fold change [5]	log2 fold change [6]	log2 fold change [7]	log2 fold change [8]	log2 fold change (IRAK-1-4 Inhibitor I)	log2 fold change (ibrutinib)	log2 fold change [9]	log2 fold change (ralimetinib)	log2 fold change [10]	log2 fold change [11]	log2 fold change [12]	log2 fold change [13]	log2 fold change [14]	log2 fold change [15]	log2 fold change [16]
1	AFF4 (UniProt Q9UHB7)	inactive: -0.003	inactive: -0.152	inactive: 0.007	inactive: -0.063	inactive: 0.021	inactive: 0.048	inactive: 0.003	inactive: 0.032	inactive: 0.016	inactive: -0.031	inactive: 0.172	inactive: -0.009	inactive: -0.049	inactive: 0.033	inactive: -0.008	inactive: -0.028	inactive: -0.047	inactive: 0.009	inactive: 0.002	inactive: 0.024
3	ACSS2 isoform 2 (UniProt Q9NR19)	inactive: 0.008	inactive: 0.025	inactive: -0.014	inactive: -0.006	inactive: 0.009	inactive: -0.021	inactive: -0.002	inactive: 0.07	inactive: -0.003	inactive: -0.026	inactive: -0.026	inactive: -0.003	inactive: 0.01	inactive: 0.029	inactive: -0.014	inactive: 0.02	inactive: 0.034	inactive: -0.041	inactive: 0.029	inactive: 0.002
6	AGO4 (UniProt Q9HCK5)	inactive: -0.038	inactive: -0.008	inactive: 0.031	inactive: -0.02	inactive: -0.031	inactive: 0.009	inactive: -0.015	inactive: 0.009	inactive: 0.016	inactive: -0.009	inactive: 0.034	inactive: -0.035	inactive: 0.022	inactive: -0.011	inactive: -0.049	inactive: 0.025	inactive: 0.05	inactive: 0	inactive: -0.013	inactive: -0.024
13	AHI1 (UniProt Q8N157)	inactive: -0.098	inactive: 0.068	inactive: -0.264	inactive: 0.031			inactive: -0.312	inactive: -0.036	inactive: 0						inactive: 0.024					
17	AIF1L (UniProt Q9BQI0)	inactive: -0.035		inactive: -0.008		inactive: -0.014	inactive: 0.012		inactive: 0.329	inactive: -0.008	inactive: -0.049	inactive: 0.169	inactive: 0.032	inactive: 0.029	inactive: -0.003	inactive: -0.105	inactive: -0.012	inactive: 0.159	inactive: -0.014	inactive: -0.005	inactive: -0.013
